This is one part of the list.
The sequences below were run against T1, OsSMF1 (Oryza sativa, UniProt Q6ZLB0 1-436) (assay: protein-binding microarray (RPBM); PBS, 2% BSA, 51.3 ng/ul salmon testes DNA, 50 uM zinc acetate, 200 nM TF, 25 C, 1 h; high values mean tight binding). Settings: protein: recombinant; tags: N-terminal polyhistidine and DsRed monomer fusion (pET32a); chain copies: 2; label: CyDye5-dUTP incorporated in the synthesized complementary strand; 3' TTTTT single-stranded linker to array surface; dsDNA, one strand shown.
T1 sequence: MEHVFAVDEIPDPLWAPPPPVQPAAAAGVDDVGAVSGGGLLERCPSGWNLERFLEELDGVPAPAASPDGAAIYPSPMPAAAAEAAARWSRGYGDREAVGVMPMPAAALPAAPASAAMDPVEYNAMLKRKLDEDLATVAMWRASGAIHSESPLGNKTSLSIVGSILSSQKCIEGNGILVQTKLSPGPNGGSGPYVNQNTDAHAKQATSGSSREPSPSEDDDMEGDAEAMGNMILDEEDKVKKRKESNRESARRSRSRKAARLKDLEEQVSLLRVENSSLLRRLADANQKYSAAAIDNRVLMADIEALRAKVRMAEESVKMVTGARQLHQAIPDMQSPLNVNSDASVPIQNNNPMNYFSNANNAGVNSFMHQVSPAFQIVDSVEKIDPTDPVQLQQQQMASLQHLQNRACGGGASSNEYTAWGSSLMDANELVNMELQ
Outline: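 An Axon 4000B scanner gave the binding signal as per-feature fluorescence intensity in arbitrary units. This followed washing of a custom Agilent array that had been incubated for 1 h at 25 °C with 200 nM protein in PBS, 2% BSA, salmon testes DNA and 50 µM zinc acetate. The proteins were transcription factors fused at the N-terminus to polyhistidine and DsRed, expressed in E. coli BL21-CodonPlus and purified on Ni–NTA.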
In the case of “AAGGATGGATATGAGCCCTACCTCCACATCAGTAGCTATCCGGAGTCACCTAGTGCAG”, the binding signal is reported as 4600 fluorescence intensity (a.u.).
“TTAGTACCACTGCCACCCTGTCATCTCTGATAGGACTATACGGAGTCACCTAGTGCAG” was tested, and the binding signal was 3340 fluorescence intensity (a.u.).
In the case of “TGCCATGTAAGCGCCACGTCAATGCCACGTGGGACAAAGACGGAGTCACCTAGTGCAG”, the binding signal is reported as 21800 fluorescence intensity (a.u.).
With “TTCAAATATCATCATATCCGTGGCACGCCATGTTTGCTTTCGGAGTCACCTAGTGCAG” the binding signal was 3280 fluorescence intensity (a.u.).
For “TAACCCCGGTTTTGTCCCACGTGGCGGCTGAGTCACCGTGCGGAGTCACCTAGTGCAG”, the binding signal was 36000 fluorescence intensity (a.u.).
For “TTTTATGAGTGAATACAAGCTTGCCTACCATTTGTCACAGCGGAGTCACCTAGTGCAG”, the binding signal was 3380 fluorescence intensity (a.u.).
With “CGTGGGCCCCACCCGTGCCAGCTCACCTCATCCCCACCACCGGAGTCACCTAGTGCAG” the binding signal was 12600 fluorescence intensity (a.u.).
In the case of “CATGCATGCACTGTAACTGAACTTTACAGCATCCAACCAGCGGAGTCACCTAGTGCAG”, the binding signal is reported as 31000 fluorescence intensity (a.u.).
For “CAGTTTGAACTGGACAAACGGACACTCAAAACCACACACGCGGAGTCACCTAGTGCAG”, the binding signal was 3260 fluorescence intensity (a.u.).
“AAGGGAAATGATTTACCATCCCTCTTTAAATCTTAACCATCGGAGTCACCTAGTGCAG” was tested, and the binding signal was 3600 fluorescence intensity (a.u.).
“CCCTCCCCACCGCCGCCGATCCGAGAGCCTCCACGTCCCCCGGAGTCACCTAGTGCAG” was tested, and the binding signal was 6680 fluorescence intensity (a.u.).
“TTGCTTGCTGCCATAAGCCGCTGAGGTCACCACGGGCGGCCGGAGTCACCTAGTGCAG” was tested, and the binding signal was 4170 fluorescence intensity (a.u.).
In the case of “GAGCGATGGGGCCTACATGTCAGTCATGAAGTCAGGGAGGCGGAGTCACCTAGTGCAG”, the binding signal is reported as 3450 fluorescence intensity (a.u.).
For “TTTCATTAGTGCTACGATTGCATTTTGTCAATTCAATAATCGGAGTCACCTAGTGCAG”, the binding signal was 3340 fluorescence intensity (a.u.).
“ATTTGTGATATGCCACCTGACCCACATGTCATTGACTCATCGGAGTCACCTAGTGCAG” was tested, and the binding signal was 8220 fluorescence intensity (a.u.).
In the case of “GTATGTGCCACGTCAGCGAAACCGTTCTCTAAAACCACCTCGGAGTCACCTAGTGCAG”, the binding signal is reported as 22400 fluorescence intensity (a.u.).
In the case of “TCTCCAACCCCAAAGGTTGTGTGTGTTGTTGTGTACAGGTCGGAGTCACCTAGTGCAG”, the binding signal is reported as 3270 fluorescence intensity (a.u.).
For “CCTGGCGCGCCAACTGTCGAAACATGAATTCGGCAATAATCGGAGTCACCTAGTGCAG”, the binding signal was 3850 fluorescence intensity (a.u.).
“AGGAGAGGTTGATGTGGCCACGTGGCACGCTCCGATTGGCCGGAGTCACCTAGTGCAG” was tested, and the binding signal was 26100 fluorescence intensity (a.u.).
In the case of “AAACAAATGCCTGTGAGGGTTGGCAGTGTCAGGGATGCTACGGAGTCACCTAGTGCAG”, the binding signal is reported as 3360 fluorescence intensity (a.u.).
In the case of “CCCTTAGTAATAGGCACGTAAATACTCTTTTCTACTGTAACGGAGTCACCTAGTGCAG”, the binding signal is reported as 3180 fluorescence intensity (a.u.).
“GCGGCTGGCGACGGGGACGGCGCCGACGTGGGTTGGGGAACGGAGTCACCTAGTGCAG” was tested, and the binding signal was 3140 fluorescence intensity (a.u.).
With “ATCTGACATACTCGAGACAACTCATATACTCCATATGTTACGGAGTCACCTAGTGCAG” the binding signal was 3530 fluorescence intensity (a.u.).
For “CGATCGAACGAGTCCACCACACGACACAACATCACACAACCGGAGTCACCTAGTGCAG”, the binding signal was 3390 fluorescence intensity (a.u.).
In the case of “TAGATCCCAACGCCCCATAAAGTGCCACGTAGTCGGTTTACGGAGTCACCTAGTGCAG”, the binding signal is reported as 11200 fluorescence intensity (a.u.).
For “CTCGCCCGTCGTCCCTCGGCGCCTCGCCATCGCCGGCGGTCGGAGTCACCTAGTGCAG”, the binding signal was 27500 fluorescence intensity (a.u.).
In the case of “TCCTCCTTCCCCTTTCCCTTCCTCCTCTCCACGCAGCAGCCGGAGTCACCTAGTGCAG”, the binding signal is reported as 3470 fluorescence intensity (a.u.).
“TAGCTGCCACATAGCTGGTGCCTGGTGGCGAGCGCAACGACGGAGTCACCTAGTGCAG” was tested, and the binding signal was 3400 fluorescence intensity (a.u.).
For “CCGCACCCCTGGGTCATCGTCGAGGCCACCGTTGCCGAGGCGGAGTCACCTAGTGCAG”, the binding signal was 3210 fluorescence intensity (a.u.).
In the case of “TGTGCTCGCCACATCCGATCCATCGATTCGTGGAATTCTCCGGAGTCACCTAGTGCAG”, the binding signal is reported as 4280 fluorescence intensity (a.u.).
For “CAGCCCGGAGCGTTCGTGGGTTCGGCCCAACCCCAAGTACCGGAGTCACCTAGTGCAG”, the binding signal was 4500 fluorescence intensity (a.u.).
In the case of “CCACCACCACCACGCCACGGCAGCCGCACCGCACCGCACCCGGAGTCACCTAGTGCAG”, the binding signal is reported as 5700 fluorescence intensity (a.u.).
For “TAATTATGTTTGCCAGCAAATCCGGGAAATTAAAACCTTACGGAGTCACCTAGTGCAG”, the binding signal was 14400 fluorescence intensity (a.u.).
“GGCGACCATCTCCGCCGCCACGGTCATCGCCGTGTCGGCCCGGAGTCACCTAGTGCAG” was tested, and the binding signal was 5530 fluorescence intensity (a.u.).
“CTGCTTCGTCGTAACCCTTAGCGAGTAACGTGGCATATTCCGGAGTCACCTAGTGCAG” was tested, and the binding signal was 5010 fluorescence intensity (a.u.).
“AGCTATGAATATCATTGTGACGTCAATGTCCTTACAAAATCGGAGTCACCTAGTGCAG” was tested, and the binding signal was 4060 fluorescence intensity (a.u.).
In the case of “ACGACATGCGTGCAAATGCATTGTAAATTTGTAATACGGCCGGAGTCACCTAGTGCAG”, the binding signal is reported as 22300 fluorescence intensity (a.u.).
In the case of “CTCCAATTTCCCAACTCCCCAATCTGTCACCTCGCAGCTTCGGAGTCACCTAGTGCAG”, the binding signal is reported as 3540 fluorescence intensity (a.u.).
“TGAATGACTAACAACTACATGATGTGGGTGACTGCTATATCGGAGTCACCTAGTGCAG” was tested, and the binding signal was 4370 fluorescence intensity (a.u.).
For “GGCAACAATGCTGTCATTTAATTATGTACCTGTCATTTATCGGAGTCACCTAGTGCAG”, the binding signal was 23700 fluorescence intensity (a.u.).
“CATCGGGCCCTCCTCCGCAACGTAAGCCATCCACGCACCACGGAGTCACCTAGTGCAG” was tested, and the binding signal was 3290 fluorescence intensity (a.u.).
For “CGGTTGGTGGACTAAACCTGGAATGACAAACCTCCAGGGACGGAGTCACCTAGTGCAG”, the binding signal was 3250 fluorescence intensity (a.u.).
